From the supplement of paper PMC11438910
This is one part of the list. Most of these values are background signal.

Assays:
Assay in all cases: fluorescence intensity of antibody binding to polysaccharide-coupled beads; higher = stronger binding
[1] = biological target: pneumococcal polysaccharide Pn23F
Protocol: (§1)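 Recombinant rhesus-murine chimeric IgG1 antibodies were tested against antigen-coupled MagPlex beads in a 96-plex Luminex direct immunoassay (dLIA). The beads carried pneumococcal capsular polysaccharides of 93 serotypes plus C-polysaccharides. Antibody was added at 0.1–12,500 ng/mL for 1 h, then PE anti-mouse IgG, and net MFI was read on a Bio-Plex 3D. Only the rhesus variable regions are printed; constant regions are murine IgG1/kappa/lambda, and the signal peptide is MGWSCIILFLVATATGVHS.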

[2] = biological target: pneumococcal polysaccharide Pn24A
Protocol: as §1

[3] = biological target: pneumococcal polysaccharide Pn24B
Protocol: as §1

[4] = biological target: pneumococcal polysaccharide Pn24F
Protocol: as §1

[5] = biological target: pneumococcal polysaccharide Pn25A
Protocol: as §1

[6] = biological target: pneumococcal polysaccharide Pn25F
Protocol: as §1

[7] = biological target: pneumococcal polysaccharide Pn27
Protocol: as §1

[8] = biological target: pneumococcal polysaccharide Pn28A
Protocol: as §1

[9] = biological target: pneumococcal polysaccharide Pn28F
Protocol: as §1

[10] = biological target: pneumococcal polysaccharide Pn29
Protocol: as §1

[11] = biological target: pneumococcal polysaccharide Pn3
Protocol: as §1

[12] = biological target: pneumococcal polysaccharide Pn31
Protocol: as §1

[13] = antibody concentration 2.8593 ng/mL
[14] = antibody concentration 15.2894 ng/mL
[15] = antibody concentration 81.7561 ng/mL
[16] = antibody concentration 437.17 ng/mL
[17] = antibody concentration 2337.65 ng/mL
[18] = antibody concentration 12500 ng/mL
[19] = antibody concentration 0.1 ng/mL
[20] = antibody concentration 0.534724 ng/mL

B1: 4-99.4 (protein)
chain 1: QVQLQESGPGLVKPSETLSLTCAVSGYSISSAYFWGWIRQPPGKGLEYIGYISGEGGKSYYNPSLMSRVTISKDTSKNQFSLKLNTVTAADTAVYYCARRAILVGFDLWGQGVLVTVSS
chain 2: QAAPTQPPSVSGSPGQSVTISCTGSNSDIGYYNAVSWYQQHPGKAPKLMIYEVSKRPSGVSDRLTGSKSGNTASLTISGLQAEDEADYYCSSYAGSNTYIFGTGTRLTVL
- fluorescence intensity [1, 13]: 19 MFI
- fluorescence intensity [1, 14]: 19.5 MFI
- fluorescence intensity [1, 15]: 18 MFI
- fluorescence intensity [1, 16]: 19.8 MFI
- fluorescence intensity [1, 17]: 20 MFI
- fluorescence intensity [1, 18]: 32.5 MFI
- fluorescence intensity [2, 19]: 16.5 MFI
- fluorescence intensity [2, 20]: 16 MFI
- fluorescence intensity [2, 13]: 17.5 MFI
- fluorescence intensity [2, 14]: 16 MFI
- fluorescence intensity [2, 15]: 17 MFI
- fluorescence intensity [2, 16]: 17 MFI
- fluorescence intensity [2, 17]: 17.5 MFI
- fluorescence intensity [2, 18]: 22 MFI
- fluorescence intensity [3, 19]: 19.5 MFI
- fluorescence intensity [3, 20]: 19 MFI
- fluorescence intensity [3, 13]: 19.2 MFI
- fluorescence intensity [3, 14]: 18.8 MFI
- fluorescence intensity [3, 15]: 20 MFI
- fluorescence intensity [3, 16]: 20 MFI
- fluorescence intensity [3, 17]: 23 MFI
- fluorescence intensity [3, 18]: 38.2 MFI
- fluorescence intensity [4, 19]: 19.8 MFI
- fluorescence intensity [4, 20]: 18 MFI
- fluorescence intensity [4, 13]: 17 MFI
- fluorescence intensity [4, 14]: 16 MFI
- fluorescence intensity [4, 15]: 15.8 MFI
- fluorescence intensity [4, 16]: 17.5 MFI
- fluorescence intensity [4, 17]: 24.5 MFI
- fluorescence intensity [4, 18]: 39.5 MFI
- fluorescence intensity [5, 19]: 23 MFI
- fluorescence intensity [5, 20]: 24 MFI
- fluorescence intensity [5, 13]: 23.5 MFI
- fluorescence intensity [5, 14]: 24 MFI
- fluorescence intensity [5, 15]: 26 MFI
- fluorescence intensity [5, 16]: 25.8 MFI
- fluorescence intensity [5, 17]: 26.5 MFI
- fluorescence intensity [5, 18]: 38.5 MFI
- fluorescence intensity [6, 19]: 30 MFI
- fluorescence intensity [6, 20]: 31.5 MFI
- fluorescence intensity [6, 13]: 30.5 MFI
- fluorescence intensity [6, 14]: 33.5 MFI
- fluorescence intensity [6, 15]: 31.5 MFI
- fluorescence intensity [6, 16]: 32.2 MFI
- fluorescence intensity [6, 17]: 30.5 MFI
- fluorescence intensity [6, 18]: 41 MFI
- fluorescence intensity [7, 19]: 18 MFI
- fluorescence intensity [7, 20]: 17.5 MFI
- fluorescence intensity [7, 13]: 18.5 MFI
- fluorescence intensity [7, 14]: 17.5 MFI
- fluorescence intensity [7, 15]: 16.5 MFI
- fluorescence intensity [7, 16]: 18.5 MFI
- fluorescence intensity [7, 17]: 22.8 MFI
- fluorescence intensity [7, 18]: 96 MFI
- fluorescence intensity [8, 19]: 26.5 MFI
- fluorescence intensity [8, 20]: 28 MFI
- fluorescence intensity [8, 13]: 27.8 MFI
- fluorescence intensity [8, 14]: 27 MFI
- fluorescence intensity [8, 15]: 27.5 MFI
- fluorescence intensity [8, 16]: 28 MFI
- fluorescence intensity [8, 17]: 28 MFI
- fluorescence intensity [8, 18]: 39 MFI
- fluorescence intensity [9, 19]: 30.8 MFI
- fluorescence intensity [9, 20]: 29.2 MFI
- fluorescence intensity [9, 13]: 30.8 MFI
- fluorescence intensity [9, 14]: 29.5 MFI
- fluorescence intensity [9, 15]: 29.5 MFI
- fluorescence intensity [9, 16]: 30.5 MFI
- fluorescence intensity [9, 17]: 31 MFI
- fluorescence intensity [9, 18]: 54.8 MFI
- fluorescence intensity [10, 19]: 15.5 MFI
- fluorescence intensity [10, 20]: 16 MFI
- fluorescence intensity [10, 13]: 16.2 MFI
- fluorescence intensity [10, 14]: 16 MFI
- fluorescence intensity [10, 15]: 17.2 MFI
- fluorescence intensity [10, 16]: 18 MFI
- fluorescence intensity [10, 17]: 21 MFI
- fluorescence intensity [10, 18]: 58.2 MFI
- fluorescence intensity [11, 19]: 16.5 MFI
- fluorescence intensity [11, 20]: 22 MFI
- fluorescence intensity [11, 13]: 52.5 MFI
- fluorescence intensity [11, 14]: 178 MFI
- fluorescence intensity [11, 15]: 478 MFI
- fluorescence intensity [11, 16]: 2170 MFI
- fluorescence intensity [11, 17]: 16300 MFI
- fluorescence intensity [11, 18]: 8180 MFI
- fluorescence intensity [12, 19]: 14.2 MFI
- fluorescence intensity [12, 20]: 14.5 MFI
- fluorescence intensity [12, 13]: 14.5 MFI
- fluorescence intensity [12, 14]: 14.5 MFI
